{"source": "PubChem BioAssay AID686938 (Drosophila RNAi Screening Center, 2013)", "assay": "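Fly genes required for calcium entry once internal stores are emptied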 (primary screen)", "system": "Drosophila S2R+ cells", "reagent": "long dsRNA against Drosophila genes, about 0.25 µg dsRNA per well, roughly 10,000 cells", "timing": "5 days of knock-down before the calcium assay", "challenge": "thapsigargin (SERCA pump blocker) to empty calcium stores; entry signal taken 4 min after adding it", "read-out": "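Per-well fluo-4 fluorescence in two replicates, unnormalised, measured in resting cells and 4 min after store depletion by the SERCA blocker thapsigargin; ratio of the two present in few wells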", "direction": "calcium entry signal: higher = stronger calcium signal after store depletion; entry to resting ratio: higher = more calcium entry relative to resting level; resting calcium signal: higher = higher resting calcium signal", "units": "calcium entry signal in fluorescence units; resting calcium signal in fluorescence units", "call rule": "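Called when the plate z-score of the entry-to-rest ratio, mean of duplicates, falls below −3; wells with low overall dye signal (Fmax z below −2) or more than five off-targets excluded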", "meaning of the calls": "active = strongly reduced calcium entry; inactive = no strong reduction", "note": "In all, the deposit lists about 23,000 reagents; below is a random part of those that have a named target and a result. Over the whole deposit, 75 (0.33%) were called active. 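Raw plate signals without normalisation; calls rest on plate z-scores that were not deposited; ratio present for only 364 wells.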 The numbers tell different reagents against one gene apart. Not given: the dose of the treatment."}
{"target gene":"Mal-A5","dsRNA no.":1,"calcium entry signal, replicate 1":3.86e7,"calcium entry signal, replicate 2":3.37e7,"resting calcium signal, replicate 1":1.64e7,"resting calcium signal, replicate 2":1.61e7,"activity call":"inactive"}
{"target gene":"TP53INP","dsRNA no.":1,"calcium entry signal, replicate 1":3.78e7,"calcium entry signal, replicate 2":5.30e7,"resting calcium signal, replicate 1":2.62e7,"resting calcium signal, replicate 2":2.52e7,"activity call":"inactive"}
{"target gene":"TP53INP","dsRNA no.":2,"calcium entry signal, replicate 1":3.31e7,"calcium entry signal, replicate 2":4.10e7,"resting calcium signal, replicate 1":1.70e7,"resting calcium signal, replicate 2":1.57e7,"activity call":"inactive"}
{"target gene":"hng1","dsRNA no.":1,"calcium entry signal, replicate 1":3.91e7,"resting calcium signal, replicate 1":2.00e7,"activity call":"inactive"}
{"target gene":"mmm","dsRNA no.":1,"calcium entry signal, replicate 1":3.88e7,"calcium entry signal, replicate 2":7.07e7,"resting calcium signal, replicate 1":1.80e7,"resting calcium signal, replicate 2":2.81e7,"activity call":"inactive"}
{"target gene":"Nelf-A","dsRNA no.":1,"calcium entry signal, replicate 1":4.76e7,"calcium entry signal, replicate 2":4.10e7,"resting calcium signal, replicate 1":2.24e7,"resting calcium signal, replicate 2":1.84e7,"activity call":"inactive"}
{"target gene":"CG7069","dsRNA no.":1,"calcium entry signal, replicate 1":3.90e7,"calcium entry signal, replicate 2":3.48e7,"resting calcium signal, replicate 1":2.01e7,"resting calcium signal, replicate 2":1.60e7,"activity call":"inactive"}
{"target gene":"trol","dsRNA no.":1,"calcium entry signal, replicate 1":3.46e7,"calcium entry signal, replicate 2":4.14e7,"resting calcium signal, replicate 1":1.98e7,"resting calcium signal, replicate 2":1.85e7,"activity call":"inactive"}
{"target gene":"trol","dsRNA no.":2,"calcium entry signal, replicate 1":5.40e7,"calcium entry signal, replicate 2":3.82e7,"resting calcium signal, replicate 1":2.40e7,"resting calcium signal, replicate 2":1.82e7,"activity call":"inactive"}
{"target gene":"trol","dsRNA no.":3,"calcium entry signal, replicate 1":3.64e7,"calcium entry signal, replicate 2":5.21e7,"entry to resting ratio":1.9,"resting calcium signal, replicate 1":1.97e7,"resting calcium signal, replicate 2":2.19e7,"activity call":"inactive"}
{"target gene":"trol","dsRNA no.":4,"calcium entry signal, replicate 1":4.86e7,"calcium entry signal, replicate 2":4.93e7,"entry to resting ratio":2,"resting calcium signal, replicate 1":2.45e7,"resting calcium signal, replicate 2":1.99e7,"activity call":"inactive"}
{"target gene":"kermit","dsRNA no.":1,"calcium entry signal, replicate 1":3.87e7,"calcium entry signal, replicate 2":3.42e7,"resting calcium signal, replicate 1":1.58e7,"resting calcium signal, replicate 2":1.52e7,"activity call":"inactive"}
{"target gene":"hiw","dsRNA no.":1,"calcium entry signal, replicate 1":3.78e7,"calcium entry signal, replicate 2":3.22e7,"resting calcium signal, replicate 1":2.17e7,"resting calcium signal, replicate 2":1.62e7,"activity call":"inactive"}
{"target gene":"hiw","dsRNA no.":2,"calcium entry signal, replicate 1":4.02e7,"calcium entry signal, replicate 2":3.24e7,"resting calcium signal, replicate 1":2.05e7,"resting calcium signal, replicate 2":1.57e7,"activity call":"inactive"}

Records listed so far whose gene name starts with M or m (2):
{"target gene":"Mal-A5","dsRNA no.":1,"calcium entry signal, replicate 1":3.86e7,"calcium entry signal, replicate 2":3.37e7,"resting calcium signal, replicate 1":1.64e7,"resting calcium signal, replicate 2":1.61e7,"activity call":"inactive"}
{"target gene":"mmm","dsRNA no.":1,"calcium entry signal, replicate 1":3.88e7,"calcium entry signal, replicate 2":7.07e7,"resting calcium signal, replicate 1":1.80e7,"resting calcium signal, replicate 2":2.81e7,"activity call":"inactive"}
